Experimental data: patent US20070232639 (published 2007)

Assay: general procedure: Fmoc solid-phase peptide synthesis; Sasrin resin; HOBT, TBTU, DIEA
Conditions: whole synthesis, scale 0.69 mmol, TFA

c(Arg(Pmc)-Gly-As-p(OtBu)-D-Phe-Aad)
isolated mass: 187 mg
